Data on one substance can be found in doi:10.1101/2023.09.18.558326.

The chains behind the UniProt entries cited, without tags or fusion partners.
UniProt Q94AH6: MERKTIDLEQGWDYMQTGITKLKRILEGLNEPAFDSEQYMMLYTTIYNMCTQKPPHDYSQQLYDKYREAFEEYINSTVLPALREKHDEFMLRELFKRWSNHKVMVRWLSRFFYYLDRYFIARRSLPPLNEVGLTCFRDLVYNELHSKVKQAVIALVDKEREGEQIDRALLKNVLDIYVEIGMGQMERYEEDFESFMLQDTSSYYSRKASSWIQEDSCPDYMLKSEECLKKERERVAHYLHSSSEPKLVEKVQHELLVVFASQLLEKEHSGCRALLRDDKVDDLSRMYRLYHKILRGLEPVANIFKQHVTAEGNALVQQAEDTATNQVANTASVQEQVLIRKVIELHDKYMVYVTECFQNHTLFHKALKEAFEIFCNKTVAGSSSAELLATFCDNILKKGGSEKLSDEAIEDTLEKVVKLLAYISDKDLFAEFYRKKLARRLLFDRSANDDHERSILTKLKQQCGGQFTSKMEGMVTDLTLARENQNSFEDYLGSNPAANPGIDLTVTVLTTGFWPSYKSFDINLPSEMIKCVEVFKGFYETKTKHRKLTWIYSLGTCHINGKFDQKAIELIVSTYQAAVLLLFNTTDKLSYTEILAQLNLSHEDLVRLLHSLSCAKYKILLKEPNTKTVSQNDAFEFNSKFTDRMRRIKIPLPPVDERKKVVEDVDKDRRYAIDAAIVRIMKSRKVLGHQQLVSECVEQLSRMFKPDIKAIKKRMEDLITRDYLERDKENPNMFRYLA

This test addresses T1, Flag-CFH1 (CLOCK-REGULATED F-BOX WITH A LONG HYPOCOTYL 1, full length) (Arabidopsis) (UniProt Q8RY82).
T1 sequence: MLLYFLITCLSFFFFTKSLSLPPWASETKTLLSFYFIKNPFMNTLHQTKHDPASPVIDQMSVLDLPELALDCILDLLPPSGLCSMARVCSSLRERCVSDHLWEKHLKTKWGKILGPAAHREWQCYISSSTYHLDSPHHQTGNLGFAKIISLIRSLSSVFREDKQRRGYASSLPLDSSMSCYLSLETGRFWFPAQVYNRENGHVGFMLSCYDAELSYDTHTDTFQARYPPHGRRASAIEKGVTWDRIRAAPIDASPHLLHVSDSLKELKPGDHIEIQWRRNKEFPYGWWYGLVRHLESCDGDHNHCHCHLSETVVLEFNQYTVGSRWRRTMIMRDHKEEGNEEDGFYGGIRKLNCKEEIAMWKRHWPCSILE
Nature of the test: co-IP.

These are yes or no findings as the source states them, for the method shown. Binding seen in cells or lysates may run through a third protein. Some results given as binding are weak or reduced against the parent protein; the word gives no strength. Where a sequence is shown, tags or fusion partners need not be part of it.

Take Cullin-1 (from UniProt Q94AH6 1-738): the binding entry was “binds”.
